Values quoted from earlier work, collected in patent US20150238441A1, “Modulation of Branched Amino Acid Concentrations to Treat Metabolic Diseases” (UNIVERSITY OF ROCHESTER, priority 2012, published 2015).
Like-named read-outs stand apart in the source and are kept apart here. At least one structure is not confirmed: it was looked up by name or label, or the drawing left a doubt.

Key:
[1] = single 10 μM (micromolar)/kg oral dose, cited from earlier work
rats = details: 10 mg/kg for 11 weeks; cited from earlier work
[2] = 0.2 mg/kg dose, at 24 hrs; cited from earlier work

O=C1CCCC(=O)C1C(=O)c1ccc(C(F)(F)F)cc1[N+](=O)[O-] [Compound 1, nitisinone]
increase of plasma tyrosine levels ([1]; at 16 h): over seven-fold
elevation of plasma tyrosine levels ([1]; three days after dosing): more than two-fold
increase of plasma tyrosine levels ([1]; within 30 min): two-fold
plasma BCAA levels (rats): unaffected
elevation of tyrosine levels [2]: nine-fold
